In the supplement of paper PMC11348887:
Counter-ions that a name gives are not always drawn. The list shows a part of the results. Most entries show no effect beyond the scatter of the controls.

Test system: hPSC-derived cortical neurons (WA09)
Assay: nucleus roundness z-score vs screen plate; higher = rounder nuclei (more mature)
Conditions: 5 µM; treatment: days 7-14 after plating, readout day 21

Row | SMILES | nucleus roundness z-score
1 | CCN(CC)CCOCCOC(=O)C1(c2ccccc2)CCCC1 [Pentoxyverine Citrate] | -1.06
2 | COc1ccc(Cl)cc1C(=O)NCCc1ccc(S(=O)(=O)NC(=O)NC2CCCCC2)cc1 [Glyburide] | 0.46
3 | Oc1ccc(-c2nc(-c3ccc(F)cc3)c(-c3ccncc3)[nH]2)cc1 | 0.174
4 | CN(C)C(=O)C(CCN1CCC(O)(c2ccc(Cl)cc2)CC1)(c1ccccc1)c1ccccc1 [Loperamide HCl] | -0.705
5 | CCCCNc1cc(C(=O)O)cc(S(N)(=O)=O)c1Oc1ccccc1 [Bumetanide] | 0.883
6 | Nc1ccc(S(=O)(=O)c2ccc(N)cc2)cc1 [Dapson] | 0.0934
7 | CNC(=O)[C@@H](NC(=O)[C@H](CC(C)C)[C@H](O)C(=O)NO)C(C)(C)C [Marimastat(BB-2516)] | 1
8 | Cc1cccc(N(C)C(=S)Oc2ccc3ccccc3c2)c1 [Tolnaftate] | 0.888
9 | CCn1c(=O)c(-c2cc[nH]n2)cc2c(C)nc(N)nc21 | 0.103
10 | OC[C@@H](O)[C@@H](O)[C@H](O)[C@H](O)CO [D-Mannitol] | -0.188
11 | OCc1cc(C(O)CNCCCCCCOCCCCc2ccccc2)ccc1O (centres undefined) [Salmeterol Xinafoate] | -0.613
12 | C#C[C@]1(O)CC[C@H]2[C@@H]3CCc4cc(OC)ccc4[C@H]3CC[C@@]21C [Mestranol] | 1.1
13 | COc1cc(Nc2ncc(F)c(Nc3ccc4c(n3)N(COP(=O)(O)O)C(=O)C(C)(C)O4)n2)cc(OC)c1OC [Fostamatinib (R788)] | -1.35
14 | CCn1cc(C(=O)O)c(=O)c2ccc(C)nc21 [Nalidixic acid] | 0.78
15 | O=C(O)c1cc(/N=N/c2ccc(O)c(C(=O)O)c2)ccc1O [Olsalazine Sodium] | -0.0303
16 | O=C(O)c1ccccc1 [Benzoic Acid] | -0.937
17 | CNC(=O)c1ccc(N2C(=S)N(c3cnc(C#N)c(C(F)(F)F)c3)C(=O)C23CCC3)cc1F | 0.225
18 | COC(=O)[C@H](CCSC)NC(=O)c1ccc(NC[C@@H](N)CS)cc1-c1ccccc1 | 0.966
19 | C=C1/C(=C\C=C2/CCC[C@]3(C)[C@@H]([C@H](C)/C=C/[C@H](C)C(C)C)CC[C@@H]23)C[C@@H](O)C[C@@H]1O [Doxercalciferol] | -0.0189
20 | Cc1cnc(Nc2ccc(OCCN3CCCC3)cc2)nc1Nc1cccc(S(=O)(=O)NC(C)(C)C)c1 | -3.69

Three entries already listed, ordered by number of heavy atoms, largest number first:
Row | SMILES | nucleus roundness z-score
1 | CCN(CC)CCOCCOC(=O)C1(c2ccccc2)CCCC1 [Pentoxyverine Citrate] | -1.06
9 | CCn1c(=O)c(-c2cc[nH]n2)cc2c(C)nc(N)nc21 | 0.103
6 | Nc1ccc(S(=O)(=O)c2ccc(N)cc2)cc1 [Dapson] | 0.0934

Later entries.

Row | SMILES | nucleus roundness z-score
21 | C#Cc1cccc(Nc2ncnc3cc(OCCOC)c(OCCOC)cc23)c1 [Erlotinib] | 0.153
22 | O=c1[nH]c(C2CCCN2)nc2c1oc1ccc(Cl)cc12 (centres undefined) | -0.776
23 | C[C@H]1C[C@H]2[C@@H]3CCC4=CC(=O)C=C[C@]4(C)[C@H]3C(=O)C[C@]2(C)[C@@]1(O)C(=O)CO [Meprednisone] | 0.347
24 | NS(=O)(=O)c1cc(Cl)c(Cl)c(S(N)(=O)=O)c1 [Dichlorphenamide] | 0.473
25 | CCOc1ccccc1OCCN[C@H](C)Cc1ccc(OC)c(S(N)(=O)=O)c1 [Tamsulosin hydrochloride] | -0.534
26 | CC(C)NCC(O)COc1ccc(COCCOC(C)C)cc1 (centres undefined) [Bisoprolol fumarate] | -1.46
27 | CN(C)c1ccc(C(=C2C=CC(=[N+](C)C)C=C2)c2ccc(N(C)C)cc2)cc1 [Crystal Violet] | 2.83
28 | Cc1csc(-c2nnc(Nc3ccc(Oc4ncccc4-c4ccnc(N)n4)cc3)c3ccccc23)c1 | 0.354
29 | CN1CC2c3ccccc3Oc3ccc(Cl)cc3C2C1 (centres undefined) [Asenapine] | -1.21
30 | O=c1ccc2ccc(OCCCCN3CCN(c4cccc5sccc45)CC3)cc2[nH]1 [Brexpiprazole] | -0.678
31 | CN1CCC(CNc2ccc3ncc(-c4cccc(OC(F)(F)F)c4)n3n2)CC1 [SGI-1776 free base] | -3.31
32 | C/C(=N\NC(=S)N1CCC1)c1ccccn1 | 0.0208
33 | C=C(C)[C@@H]1CC[C@]2(C(=O)O)CC[C@]3(C)[C@H](CC[C@@H]4[C@@]5(C)CC[C@H](O)C(C)(C)[C@@H]5CC[C@]43C)[C@@H]12 [Betulinic acid] | -1.83
34 | CCn1cc(C(=O)O)c(=O)c2cc(F)c(N3CCNCC3)nc21 [Enoxacin] | -0.283
35 | CN(C)CCOC(C)(c1ccccc1)c1ccccn1 (centres undefined) [Doxylamine Succinate] | -0.0261
36 | O=C(NCC(=O)N1CCCC1)Nc1ccc2cnccc2c1 | -0.746
37 | COc1ccc(C(=O)CC(=O)c2ccc(C(C)(C)C)cc2)cc1 [Avobenzone] | 0.479
38 | O=C1[C@H](Cc2ccc(O)cc2)N2C(=O)CCN(C(=O)NCc3ccccc3)[C@H]2CN1Cc1cccc2ccccc12 | -0.433
39 | CC(C)(C(=O)O)c1ccc(C(O)CCCN2CCC(C(O)(c3ccccc3)c3ccccc3)CC2)cc1 (centres undefined) [Fexofenadine HCl] | -0.0057
